Assay results: PMC11037463
These are yes or no findings as the source states them, for the method shown. Binding seen in cells or lysates may run through a third protein. Binding can be weak; no strength is given. For some assays here: Tags and fused reporters may be left off the sequences shown.

Tests used:
[1] = biological target: LYK8-VYNE (M. truncatula); assay: split reporter; split-Venus BiFC: LYK8 fused to VYNE, the other receptors to VYCE, co-expressed in N. benthamiana leaves; confocal microscopy 36 h after infiltration
[2] = biological target: LYK8-FLAG (M. truncatula); assay: co-IP; LYK8-FLAG and HA-tagged receptors co-expressed in N. benthamiana leaves; leaves infiltrated with water or 1 μM CO4 or CO8 for 10 min before extraction; anti-FLAG M2 agarose, 4 h at 4 °C; blots with anti-HA and anti-FLAG

B1: DMI2-VYCE (receptor, UniProt Q8L4H4 30-925)
chain: ATKGFESIACCADSNYTDPKTTLTYTTDHIWFSDKRSCRQIPEILFSHRSNKNVRKFEIYEGKRCYNLPTVKDQVYLIRGIFPFDSLNSSFYVSIGVTELGELRSSRLEDLEIEGVFRATKDYIDFCLLKEDVNPFISQIELRPLPEEYLHGFGTSVLKLISRNNLGDTNDDIRFPDDQNDRIWKRKETSTPTSALPLSFNVSNVDLKDSVTPPLQVLQTALTHPERLEFVHDGLETDDYEYSVFLHFLELNGTVRAGQRVFDIYLNNEIKKEKFDVLAGGSKNSYTALNISANGSLNITLVKASGSEFGPLLNAYEILQARSWIEETNQKDLEVIQKMREELLLHNQENEALESWSGDPCMIFPWKGITCDDSTGSSIITKLDLSSNNLKGAIPSIVTKMTNLQILNLSHNQFDMLFPSFPPSSLLISLDLSYNDLSGWLPESIISLPHLKSLYFGCNPSMSDEDTTKLNSSLINTDYGRCKAKKPKFGQVFVIGAITSGSLLITLAVGILFFCRYRHKSITLEGFGKTYPMATNIIFSLPSKDDFFIKSVSVKPFTLEYIEQATEQYKTLIGEGGFGSVYRGTLDDGQEVAVKVRSSTSTQGTREFDNELNLLSAIQHENLVPLLGYCNEYDQQILVYPFMSNGSLLDRLYGEASKRKILDWPTRLSIALGAARGLAYLHTFPGRSVIHRDVKSSNILLDQSMCAKVADFGFSKYAPQEGDSYVSLEVRGTAGYLDPEYYKTQQLSEKSDVFSFGVVLLEIVSGREPLNIKRPRIEWSLVEWAKPYIRASKVDEIVDPGIKGGYHAEALWRVVEVALQCLEPYSTYRPCMVDIVRELEDALIIENNASEYMKSIDSLGGSNRYSIVMDKRALPSTTSTAESTITTQTLSHPQPR
Q: For B1, which binding [1] is on record?
A: binds

B2: DMI2-HA (receptor, UniProt Q8L4H4 30-925)
chain: B1 chain
Q: For B2, which binding [2] is on record?
A: binds
